Reference: the supplement of paper PMC6411743
± gives the standard deviation of the averaged measurements. The list shows a part of the results, in another mix than the full data. Small differences around the control level are noise.

Sequences of proteins named here, by UniProt entry; tags and fusion partners are left off. A change or cut given only in a name is not applied to a line headed by its entry.
UniProt O43427: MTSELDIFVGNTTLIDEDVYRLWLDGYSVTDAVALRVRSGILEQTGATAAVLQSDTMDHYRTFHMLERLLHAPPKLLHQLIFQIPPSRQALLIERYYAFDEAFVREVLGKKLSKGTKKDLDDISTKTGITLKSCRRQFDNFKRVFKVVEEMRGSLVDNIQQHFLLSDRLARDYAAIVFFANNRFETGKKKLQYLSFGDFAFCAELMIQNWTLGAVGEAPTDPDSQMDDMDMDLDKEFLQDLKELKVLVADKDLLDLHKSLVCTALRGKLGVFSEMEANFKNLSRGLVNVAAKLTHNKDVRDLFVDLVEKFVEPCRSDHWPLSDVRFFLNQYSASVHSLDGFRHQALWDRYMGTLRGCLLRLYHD
UniProt Q69YH5: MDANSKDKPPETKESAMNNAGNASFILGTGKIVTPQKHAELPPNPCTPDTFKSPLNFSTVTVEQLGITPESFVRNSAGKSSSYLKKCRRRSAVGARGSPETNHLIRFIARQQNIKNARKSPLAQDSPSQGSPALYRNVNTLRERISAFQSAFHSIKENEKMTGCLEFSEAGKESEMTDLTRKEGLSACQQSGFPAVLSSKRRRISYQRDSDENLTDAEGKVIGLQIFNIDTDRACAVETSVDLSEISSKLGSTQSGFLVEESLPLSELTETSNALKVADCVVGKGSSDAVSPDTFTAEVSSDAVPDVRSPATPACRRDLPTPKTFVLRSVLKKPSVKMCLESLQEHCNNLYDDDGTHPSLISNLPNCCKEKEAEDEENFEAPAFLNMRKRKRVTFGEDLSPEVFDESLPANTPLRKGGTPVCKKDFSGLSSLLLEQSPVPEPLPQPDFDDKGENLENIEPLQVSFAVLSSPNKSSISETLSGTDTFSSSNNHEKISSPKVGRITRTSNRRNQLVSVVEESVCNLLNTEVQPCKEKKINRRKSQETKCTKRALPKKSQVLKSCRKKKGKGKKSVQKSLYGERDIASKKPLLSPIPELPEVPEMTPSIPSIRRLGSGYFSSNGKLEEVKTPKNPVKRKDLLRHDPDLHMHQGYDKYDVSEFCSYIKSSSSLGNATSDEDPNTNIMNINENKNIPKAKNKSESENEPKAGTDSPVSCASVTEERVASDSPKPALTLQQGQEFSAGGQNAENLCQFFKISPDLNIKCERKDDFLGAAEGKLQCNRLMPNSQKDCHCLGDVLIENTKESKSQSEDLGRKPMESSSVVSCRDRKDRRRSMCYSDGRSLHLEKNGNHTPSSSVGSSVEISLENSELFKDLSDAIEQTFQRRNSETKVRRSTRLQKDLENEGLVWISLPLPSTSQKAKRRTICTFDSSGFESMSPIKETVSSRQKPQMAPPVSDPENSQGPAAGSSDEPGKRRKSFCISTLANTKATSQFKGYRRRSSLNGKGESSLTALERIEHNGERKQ
UniProt Q7Z589: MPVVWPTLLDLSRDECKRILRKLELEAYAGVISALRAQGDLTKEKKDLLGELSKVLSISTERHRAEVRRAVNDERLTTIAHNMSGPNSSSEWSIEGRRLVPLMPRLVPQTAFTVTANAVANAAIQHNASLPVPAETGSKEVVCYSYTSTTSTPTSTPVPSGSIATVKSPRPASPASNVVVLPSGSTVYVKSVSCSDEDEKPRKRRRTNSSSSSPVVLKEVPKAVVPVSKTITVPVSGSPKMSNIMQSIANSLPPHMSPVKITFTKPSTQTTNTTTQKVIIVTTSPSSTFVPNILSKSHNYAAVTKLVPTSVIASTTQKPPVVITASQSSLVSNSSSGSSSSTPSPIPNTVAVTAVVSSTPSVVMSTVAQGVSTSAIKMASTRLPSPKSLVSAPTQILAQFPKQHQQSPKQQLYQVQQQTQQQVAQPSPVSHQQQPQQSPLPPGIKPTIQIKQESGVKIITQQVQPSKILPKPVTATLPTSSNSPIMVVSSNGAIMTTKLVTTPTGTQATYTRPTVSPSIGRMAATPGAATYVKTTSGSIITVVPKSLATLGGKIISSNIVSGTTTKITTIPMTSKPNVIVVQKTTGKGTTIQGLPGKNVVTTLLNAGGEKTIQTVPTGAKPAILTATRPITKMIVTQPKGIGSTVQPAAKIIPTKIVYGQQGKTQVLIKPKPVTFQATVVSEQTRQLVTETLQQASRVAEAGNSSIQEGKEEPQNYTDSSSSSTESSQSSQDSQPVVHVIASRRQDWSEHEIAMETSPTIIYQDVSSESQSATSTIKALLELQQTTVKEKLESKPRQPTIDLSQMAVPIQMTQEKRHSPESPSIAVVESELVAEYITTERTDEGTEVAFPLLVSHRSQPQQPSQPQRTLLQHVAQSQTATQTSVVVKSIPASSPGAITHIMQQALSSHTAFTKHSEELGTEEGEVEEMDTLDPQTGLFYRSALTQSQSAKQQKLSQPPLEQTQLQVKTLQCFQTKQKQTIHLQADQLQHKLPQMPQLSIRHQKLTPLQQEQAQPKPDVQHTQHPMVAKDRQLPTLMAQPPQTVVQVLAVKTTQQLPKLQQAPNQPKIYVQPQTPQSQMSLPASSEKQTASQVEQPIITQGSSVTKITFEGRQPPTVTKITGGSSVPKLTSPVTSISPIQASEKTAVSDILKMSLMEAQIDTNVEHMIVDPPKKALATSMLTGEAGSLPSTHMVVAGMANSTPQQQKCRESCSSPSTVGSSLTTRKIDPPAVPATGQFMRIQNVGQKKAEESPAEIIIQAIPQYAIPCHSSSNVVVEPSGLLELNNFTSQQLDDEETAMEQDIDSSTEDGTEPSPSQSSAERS
UniProt P10809, whole entry: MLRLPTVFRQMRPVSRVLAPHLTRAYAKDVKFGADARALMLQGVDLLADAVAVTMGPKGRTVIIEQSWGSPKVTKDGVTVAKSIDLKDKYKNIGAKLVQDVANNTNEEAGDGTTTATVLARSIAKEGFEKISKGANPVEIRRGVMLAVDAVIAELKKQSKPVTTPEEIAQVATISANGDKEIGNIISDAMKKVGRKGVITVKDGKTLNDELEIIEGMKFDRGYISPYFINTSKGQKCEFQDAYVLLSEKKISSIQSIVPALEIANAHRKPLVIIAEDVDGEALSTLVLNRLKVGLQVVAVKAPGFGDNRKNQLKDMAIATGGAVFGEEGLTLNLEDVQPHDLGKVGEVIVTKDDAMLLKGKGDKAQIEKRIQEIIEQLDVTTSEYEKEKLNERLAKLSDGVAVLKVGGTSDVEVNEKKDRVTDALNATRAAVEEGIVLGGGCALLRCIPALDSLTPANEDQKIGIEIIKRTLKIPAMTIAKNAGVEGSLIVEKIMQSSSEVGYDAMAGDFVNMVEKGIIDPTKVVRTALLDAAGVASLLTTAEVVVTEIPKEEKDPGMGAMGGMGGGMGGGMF
UniProt Q15418, whole entry: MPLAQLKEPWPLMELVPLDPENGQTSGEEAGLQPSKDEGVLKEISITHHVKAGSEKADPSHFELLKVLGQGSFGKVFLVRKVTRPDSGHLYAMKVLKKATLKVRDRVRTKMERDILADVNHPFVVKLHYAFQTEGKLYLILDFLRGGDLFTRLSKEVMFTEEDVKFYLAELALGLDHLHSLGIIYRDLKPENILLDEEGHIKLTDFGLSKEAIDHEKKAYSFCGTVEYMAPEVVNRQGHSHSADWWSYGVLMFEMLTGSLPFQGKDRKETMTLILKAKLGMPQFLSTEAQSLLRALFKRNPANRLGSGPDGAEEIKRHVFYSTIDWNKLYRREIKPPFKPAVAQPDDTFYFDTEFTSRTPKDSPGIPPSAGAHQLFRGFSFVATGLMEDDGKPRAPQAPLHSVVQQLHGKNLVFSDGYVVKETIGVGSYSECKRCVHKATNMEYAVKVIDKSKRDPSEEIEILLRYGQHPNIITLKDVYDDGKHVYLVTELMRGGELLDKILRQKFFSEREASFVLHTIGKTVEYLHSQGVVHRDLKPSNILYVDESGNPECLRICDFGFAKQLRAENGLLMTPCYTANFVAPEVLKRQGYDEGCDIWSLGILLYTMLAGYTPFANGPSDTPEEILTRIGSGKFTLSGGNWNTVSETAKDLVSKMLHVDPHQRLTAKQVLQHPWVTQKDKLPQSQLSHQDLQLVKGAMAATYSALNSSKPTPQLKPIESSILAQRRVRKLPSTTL
UniProt Q08623: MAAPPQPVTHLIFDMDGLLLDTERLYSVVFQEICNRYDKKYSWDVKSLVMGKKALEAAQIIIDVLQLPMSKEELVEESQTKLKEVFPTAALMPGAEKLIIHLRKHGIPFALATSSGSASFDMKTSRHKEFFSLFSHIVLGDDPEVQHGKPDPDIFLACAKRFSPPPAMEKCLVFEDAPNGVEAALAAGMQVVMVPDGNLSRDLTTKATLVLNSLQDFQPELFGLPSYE
UniProt Q8NEY8: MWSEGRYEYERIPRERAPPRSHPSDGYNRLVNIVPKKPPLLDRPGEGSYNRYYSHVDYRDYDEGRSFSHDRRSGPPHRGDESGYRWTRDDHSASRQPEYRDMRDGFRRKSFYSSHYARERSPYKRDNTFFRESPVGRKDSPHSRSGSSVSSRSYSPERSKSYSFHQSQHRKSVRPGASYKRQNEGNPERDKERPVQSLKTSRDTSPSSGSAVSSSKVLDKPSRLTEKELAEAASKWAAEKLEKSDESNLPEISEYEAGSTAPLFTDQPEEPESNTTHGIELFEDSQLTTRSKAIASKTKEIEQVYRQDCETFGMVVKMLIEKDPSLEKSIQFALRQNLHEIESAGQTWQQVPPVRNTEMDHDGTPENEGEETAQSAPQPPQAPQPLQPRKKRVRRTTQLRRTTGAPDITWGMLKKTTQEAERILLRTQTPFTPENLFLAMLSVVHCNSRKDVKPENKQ
UniProt P61923: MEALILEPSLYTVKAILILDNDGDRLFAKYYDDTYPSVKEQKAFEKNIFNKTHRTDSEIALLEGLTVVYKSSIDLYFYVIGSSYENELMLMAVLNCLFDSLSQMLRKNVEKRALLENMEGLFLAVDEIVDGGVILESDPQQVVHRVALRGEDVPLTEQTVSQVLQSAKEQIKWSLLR
UniProt P61020: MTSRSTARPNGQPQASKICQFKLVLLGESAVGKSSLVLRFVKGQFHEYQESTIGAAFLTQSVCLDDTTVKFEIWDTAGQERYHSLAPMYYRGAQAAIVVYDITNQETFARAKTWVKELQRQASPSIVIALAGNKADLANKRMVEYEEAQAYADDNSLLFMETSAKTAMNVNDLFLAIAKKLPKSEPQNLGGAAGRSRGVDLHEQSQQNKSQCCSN
UniProt Q8N9N8: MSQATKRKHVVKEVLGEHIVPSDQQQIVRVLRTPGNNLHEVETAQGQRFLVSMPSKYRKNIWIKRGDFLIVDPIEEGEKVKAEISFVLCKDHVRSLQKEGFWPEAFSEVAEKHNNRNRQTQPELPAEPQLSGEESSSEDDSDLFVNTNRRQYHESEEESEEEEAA
UniProt O14653: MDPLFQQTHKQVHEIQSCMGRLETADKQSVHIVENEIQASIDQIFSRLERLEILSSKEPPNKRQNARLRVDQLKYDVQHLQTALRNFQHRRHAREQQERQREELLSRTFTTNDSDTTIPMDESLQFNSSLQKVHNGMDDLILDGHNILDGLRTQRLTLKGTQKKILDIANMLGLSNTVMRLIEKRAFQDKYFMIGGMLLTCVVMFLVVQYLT
UniProt P49821, whole entry: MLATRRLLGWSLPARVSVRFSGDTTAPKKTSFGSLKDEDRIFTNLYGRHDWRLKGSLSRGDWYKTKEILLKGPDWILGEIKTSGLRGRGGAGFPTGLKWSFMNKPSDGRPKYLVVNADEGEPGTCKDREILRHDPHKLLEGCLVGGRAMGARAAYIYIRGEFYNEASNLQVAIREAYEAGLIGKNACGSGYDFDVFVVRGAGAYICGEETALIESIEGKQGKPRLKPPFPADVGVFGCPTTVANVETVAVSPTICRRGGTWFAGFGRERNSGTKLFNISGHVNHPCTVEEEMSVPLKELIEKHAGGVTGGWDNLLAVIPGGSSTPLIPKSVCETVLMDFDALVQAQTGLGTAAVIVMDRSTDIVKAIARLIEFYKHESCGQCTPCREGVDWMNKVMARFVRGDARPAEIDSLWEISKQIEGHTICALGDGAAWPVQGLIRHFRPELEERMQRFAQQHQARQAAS
UniProt P08195: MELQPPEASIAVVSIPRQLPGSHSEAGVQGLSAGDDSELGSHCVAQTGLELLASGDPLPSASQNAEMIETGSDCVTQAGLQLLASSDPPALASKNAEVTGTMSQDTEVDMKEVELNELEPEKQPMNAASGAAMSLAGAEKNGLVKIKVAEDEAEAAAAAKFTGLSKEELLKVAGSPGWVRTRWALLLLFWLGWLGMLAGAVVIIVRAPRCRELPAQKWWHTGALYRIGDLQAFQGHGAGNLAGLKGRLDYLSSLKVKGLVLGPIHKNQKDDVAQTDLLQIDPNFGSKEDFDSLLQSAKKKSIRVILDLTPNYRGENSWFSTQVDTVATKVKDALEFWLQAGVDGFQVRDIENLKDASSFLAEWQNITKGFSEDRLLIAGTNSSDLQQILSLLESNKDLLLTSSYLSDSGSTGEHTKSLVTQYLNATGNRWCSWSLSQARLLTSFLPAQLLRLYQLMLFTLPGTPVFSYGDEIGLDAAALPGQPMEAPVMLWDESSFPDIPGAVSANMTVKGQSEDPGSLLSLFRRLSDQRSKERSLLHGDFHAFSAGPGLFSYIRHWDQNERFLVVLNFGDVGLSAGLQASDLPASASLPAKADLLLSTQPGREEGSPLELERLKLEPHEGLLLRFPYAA

Compound: Nc1ncnc2c1ncn2[C@@H]1O[C@H](COP(=O)(O)OP(=O)(O)NP(=O)(O)O)[C@@H](O)[C@H]1O [adenylyl imidodiphosphate]
Assay: NP40-soluble protein abundance relative to vehicle (solubility fold change) (ratio); higher = more soluble protein in presence of AMP-PNP
In short: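 Values are fold changes against the detergent-processed vehicle, based on vsn-normalised intensities. Jurkat crude lysate was treated at eight concentrations from 0.1 to 10 mM (10 min at room temperature, then 3 min at 37 °C), solubilised with 0.8% NP40 and benzonase, ultracentrifuged and analysed by TMT-labelled LC-MS/MS over three independent experiments.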

Row | Target | NP40-soluble protein abundance (concentration: 0.1mM) | NP40-soluble protein abundance (concentration: 0.5mM)
1 | E9PSD3 and related entries (UniProt O43427) | 0.977 ± 0.033 | 0.989 ± 0.066
2 | F5GWA4 and related entries (UniProt Q9H3F6) | 1.0003 ± 0.00028 | 0.9762 ± 0.0025
3 | E7ESY0 and related entries (UniProt P32019) | 1 ± 0.04 | 0.969 ± 0.089
4 | F8W7U0 and related entries (UniProt Q15811) | 0.998 ± 0.021 | 0.998 ± 0.023
5 | F5GXB1 and related entries (UniProt Q9HBH0) | 1.02 ± 0.028 | 1.02 ± 0.021
6 | F8VS36 and related entries (UniProt Q92994) | 1.09 ± 0.049 | 0.993 ± 0.015
7 | E9PEI0 and related entries (UniProt Q69YH5) | 0.9663 ± 0.0086 | 0.9695 ± 0.0053
8 | F8W922 and related entries (UniProt Q9H7P6) | 1.017 ± 0.0083 | 1.027 ± 0.0032
9 | E9PMC9 and related entries (UniProt Q7Z589) | 0.986 ± 0.036 | 0.997 ± 0.047
10 | F2Z2X4 and related entries (UniProt Q9C0E2) | 1 ± 0.049 | 0.965 ± 0.066
11 | F5GZY7 and related entries (UniProt Q9H0R8) | 0.98 ± 0.01 | 1.02 ± 0.049
12 | F5H5I6 and related entries (UniProt Q12849) | 0.979 ± 0.027 | 0.988 ± 0.011
13 | E9PI30 and related entries (UniProt P56202) | 0.943 ± 0.015 | 0.964 ± 0.019
14 | F2Z2X0 and related entries (UniProt O00746) | 1.06 ± 0.028 | 1.07 ± 0.019
15 | E7EPN6 and related entries (UniProt P55347) | 1.01 ± 0.031 | 1 ± 0.049
16 | E5RJF8 and related entries (UniProt O15182) | 0.999 ± 0.03 | 1.03 ± 0.011
17 | E7ESH4 and related entries (UniProt P10809) | 0.967 ± 0.055 | 0.993 ± 0.071
18 | E9PGT3 and related entries (UniProt Q15418) | 1.01 ± 0.051 | 0.997 ± 0.075
19 | F5H4V9 and related entries (UniProt Q16342) | 0.9655 ± 0.0046 | 0.988 ± 0.033
20 | E9PIW9 and related entries (UniProt Q6SPF0) | 1.01 ± 0.043 | 0.993 ± 0.047
21 | E9PC69 and related entries (UniProt Q7KZI7) | 1.04 ± 0.049 | 1.02 ± 0.019
22 | E5RIH5 and related entries (UniProt Q6NXR4) | 0.97 ± 0.046 | 0.96 ± 0.043
23 | E9PH64 and related entries (UniProt Q9Y6M9) | 1.02 ± 0.057 | 1.06 ± 0.12
24 | E7EMB1 and related entries (UniProt Q9UH65) | 0.97 ± 0.021 | 1.01 ± 0.04
25 | E7ETP9 and related entries (UniProt Q9UQV4) | 0.99 ± 0.021 | 0.98 ± 0.025
26 | F5H7W8 and related entries (UniProt Q96C57) | 1.06 ± 0.057 | 1.17 ± 0.028

Whole records as entered above.
F5H4V9 and related entries (UniProt Q16342) is entered as NP40-soluble protein abundance (concentration: 0.1mM): 0.9655 ± 0.0046; NP40-soluble protein abundance (concentration: 0.5mM): 0.988 ± 0.033
F8W922 and related entries (UniProt Q9H7P6) is entered as NP40-soluble protein abundance (concentration: 0.1mM): 1.017 ± 0.0083; NP40-soluble protein abundance (concentration: 0.5mM): 1.027 ± 0.0032

A second format for some results above.

| Row | Target | NP40-soluble protein abundance (concentration: 0.1mM) | NP40-soluble protein abundance (concentration: 0.5mM) |
| --- | --- | --- | --- |
| 4 | F8W7U0 and related entries (UniProt Q15811) | 0.998 ± 0.021 | 0.998 ± 0.023 |
| 5 | F5GXB1 and related entries (UniProt Q9HBH0) | 1.02 ± 0.028 | 1.02 ± 0.021 |

Later entries

Row | Target | NP40-soluble protein abundance (concentration: 0.1mM) | NP40-soluble protein abundance (concentration: 0.5mM)
27 | E7EUY3 and related entries (UniProt P05166) | 0.979 ± 0.022 | 0.97 ± 0.023
28 | E7ESG2 and related entries (UniProt Q9HAW4) | 0.968 ± 0.033 | 1.02 ± 0.057
29 | E9PN10 and related entries (UniProt O00559) | 0.975 ± 0.035 | 1.04 ± 0.044
30 | F5H7T0 and related entries (UniProt Q96S38) | 0.996 ± 0.022 | 0.988 ± 0.017
31 | E9PPN1 and related entries (UniProt Q8WW01) | 0.994 ± 0.025 | 0.985 ± 0.025
32 | E9PI90 and related entries (UniProt Q9H061) | 1.05 ± 0.095 | 0.985 ± 0.12
33 | F8VX10 and related entries (UniProt Q9H9L4) | 0.993 ± 0.021 | 0.999 ± 0.04
34 | E9PCW1 and related entries (UniProt O95249) | 0.969 ± 0.038 | 1.01 ± 0.041
35 | E7EQT4 and related entries (UniProt Q9UKV3) | 0.998 ± 0.038 | 1.04 ± 0.048
36 | E9PKQ5 and related entries (UniProt Q9GZT6) | 1 ± 0.025 | 0.999 ± 0.049
37 | F5H365 and related entries (UniProt Q15436) | 1.02 ± 0.033 | 0.995 ± 0.041
38 | E7EVH9 and related entries (UniProt Q08623) | 0.971 ± 0.013 | 0.988 ± 0.018
39 | F8W7Q4 and related entries (UniProt Q96A26) | 1.01 ± 0.041 | 1.05 ± 0.094
40 | E7EUI8 and related entries (UniProt P11413) | 1.04 ± 0.042 | 1 ± 0.09
41 | E9PBS1 and related entries (UniProt P22234) | 1.01 ± 0.014 | 1.01 ± 0.031
42 | E9PJ55 and related entries (UniProt Q9NUJ3) | 0.997 ± 0.056 | 1.02 ± 0.067
43 | E9PE19 and related entries (UniProt Q12830) | 0.983 ± 0.039 | 1.02 ± 0.059
44 | F8W0Q9 and related entries (UniProt Q8NEY8) | 0.981 ± 0.03 | 0.977 ± 0.045
45 | E7EW18 and related entries (UniProt P06746) | 0.999 ± 0.029 | 1.04 ± 0.035
46 | F8VVA7 and related entries (UniProt P61923) | 1 ± 0.041 | 1.04 ± 0.1
47 | F8W060 and related entries (UniProt Q9BZF1) | 0.974 ± 0.024 | 0.988 ± 0.011
48 | F8VVZ0 and related entries (UniProt P61020) | 1.02 ± 0.02 | 1.021 ± 0.0037
49 | E7EQV9 and related entries (UniProt P61313) | 1.08 ± 0.062 | 1.04 ± 0.057
50 | E9PLI6 and related entries (UniProt Q8N9N8) | 0.962 ± 0.014 | 0.953 ± 0.034
51 | F8W809 and related entries (UniProt Q16881) | 0.988 ± 0.013 | 1.01 ± 0.029
52 | E9PP50 and related entries (UniProt P23528) | 0.993 ± 0.023 | 0.993 ± 0.02

Row | Target | NP40-soluble protein abundance (concentration: 0.1mM) | NP40-soluble protein abundance (concentration: 0.5mM)
53 | E7EQL8 and related entries (UniProt Q96RT7) | 1.01 ± 0.025 | 0.9862 ± 0.0057
54 | F5H5P4 and related entries (UniProt P15498) | 1.01 ± 0.031 | 0.982 ± 0.053
55 | E9PK67 and related entries (UniProt Q53GL7) | 1.02 ± 0.02 | 1 ± 0.014
56 | E7EMK3 and related entries (UniProt Q14254) | 1.05 ± 0.054 | 1.03 ± 0.054
57 | E7EQ34 and related entries (UniProt O14653+E7EQ34) | 0.964 ± 0.023 | 1.01 ± 0.018
58 | F5H7J9 and related entries (UniProt O75581) | 0.981 ± 0.031 | 1.01 ± 0.049
59 | G3V0I5 and related entries (UniProt P49821) | 1.04 ± 0.047 | 1.03 ± 0.016
60 | E9PEQ6 and related entries (UniProt Q9UNP9) | 0.966 ± 0.019 | 1.03 ± 0.047
61 | F5GXG6 and related entries (UniProt Q13889) | 1.02 ± 0.016 | 1.03 ± 0.064
62 | F5H858 and related entries (UniProt O75167) | 0.9998 ± 0.0038 | 0.993 ± 0.045
63 | E9PPZ9 and related entries (UniProt O43292) | 1.04 ± 0.065 | 1.02 ± 0.036
64 | E7ETB3 and related entries (UniProt Q9ULA0) | 1.01 ± 0.04 | 0.978 ± 0.027
65 | UniProt E9PSI1 | 0.981 ± 0.1 | 0.972 ± 0.097
66 | E7EX17 and related entries (UniProt P23588) | 0.985 ± 0.037 | 1.02 ± 0.07
67 | E9PJH7 and related entries (UniProt Q9H936) | 1.01 ± 0.028 | 1.01 ± 0.032
68 | F5H1D6 and related entries (UniProt Q07864) | 0.993 ± 0.035 | 0.987 ± 0.018
69 | E7EVQ6 and related entries (UniProt Q14534) | 1.03 ± 0.019 | 1.05 ± 0.026
70 | E9PJI0 and related entries (UniProt Q5JPF3) | 0.975 ± 0.033 | 0.949 ± 0.029
71 | F5GWT4 and related entries (UniProt Q9H4A3) | 1.01 ± 0.036 | 1.02 ± 0.051
72 | F8WAE6 and related entries (UniProt Q86YW9) | 0.97623 ± 0.00033 | 0.964 ± 0.041
73 | E9PK26 and related entries (UniProt Q9NRS6) | 1.01 ± 0.023 | 0.982 ± 0.043
74 | E9PCG9 and related entries (UniProt Q02338) | 1.03 ± 0.039 | 0.962 ± 0.067
75 | F5GZS6 and related entries (UniProt P08195) | 1 ± 0.033 | 1.01 ± 0.031
76 | E9PQL0 and related entries (UniProt Q86UB9) | 1 ± 0.015 | 0.997 ± 0.012
77 | F8VU90 and related entries (UniProt Q9NYL4) | 1.01 ± 0.057 | 1.03 ± 0.053
